Results are given in words; binding and its absence hold for the method and conditions named. Some results given as binding are weak or reduced against the parent protein; the word gives no strength. For some assays here: Sequences can lack the tags named with a protein.
Columns and labels:
human tenascin C (human) [1] = target: human tenascin C (human) (UniProt P24821); experiment: ELISA of fragments
human tenascin C (human) [2] = target: human tenascin C (human) (UniProt P24821); experiment: ELISA of GST-fused fragments; compared with PIGF123-144
human tenascin C (human) [3] = target: human tenascin C (human) (UniProt P24821); experiment: ELISA of FIG. 1(B); GST-fused fragment on coated ECM protein
human tenascin C (human) [4] = target: human tenascin C (human) (UniProt P24821); experiment: ELISA; GST-fused fragment at 100 nM on coated ECM protein, anti-GST detection
human tenascin C (human) [5] = target: human tenascin C (human) (UniProt P24821); experiment: ELISA on coated ECM protein
human fibrinogen (human) = human fibrinogen (human) (UniProt P02671+P02675+P02679); experiment: ELISA
[6] = target: human plasma fibronectin (human) (UniProt P02751); experiment: ELISA
human tenascin C (human) [7] = target: human tenascin C (human) (UniProt P24821); experiment: ELISA
[8] = target: human vitronectin (human) (UniProt P04004); experiment: ELISA

Sequences of proteins named here, by UniProt entry; tags and fusion partners are left off. A change or cut given only in a name is not applied to a line headed by its entry. A line that says so, or that is headed by a name, gives the form on record, which may keep a tag or linker. Residues count along the entry.
UniProt P24821, residues 23-2201: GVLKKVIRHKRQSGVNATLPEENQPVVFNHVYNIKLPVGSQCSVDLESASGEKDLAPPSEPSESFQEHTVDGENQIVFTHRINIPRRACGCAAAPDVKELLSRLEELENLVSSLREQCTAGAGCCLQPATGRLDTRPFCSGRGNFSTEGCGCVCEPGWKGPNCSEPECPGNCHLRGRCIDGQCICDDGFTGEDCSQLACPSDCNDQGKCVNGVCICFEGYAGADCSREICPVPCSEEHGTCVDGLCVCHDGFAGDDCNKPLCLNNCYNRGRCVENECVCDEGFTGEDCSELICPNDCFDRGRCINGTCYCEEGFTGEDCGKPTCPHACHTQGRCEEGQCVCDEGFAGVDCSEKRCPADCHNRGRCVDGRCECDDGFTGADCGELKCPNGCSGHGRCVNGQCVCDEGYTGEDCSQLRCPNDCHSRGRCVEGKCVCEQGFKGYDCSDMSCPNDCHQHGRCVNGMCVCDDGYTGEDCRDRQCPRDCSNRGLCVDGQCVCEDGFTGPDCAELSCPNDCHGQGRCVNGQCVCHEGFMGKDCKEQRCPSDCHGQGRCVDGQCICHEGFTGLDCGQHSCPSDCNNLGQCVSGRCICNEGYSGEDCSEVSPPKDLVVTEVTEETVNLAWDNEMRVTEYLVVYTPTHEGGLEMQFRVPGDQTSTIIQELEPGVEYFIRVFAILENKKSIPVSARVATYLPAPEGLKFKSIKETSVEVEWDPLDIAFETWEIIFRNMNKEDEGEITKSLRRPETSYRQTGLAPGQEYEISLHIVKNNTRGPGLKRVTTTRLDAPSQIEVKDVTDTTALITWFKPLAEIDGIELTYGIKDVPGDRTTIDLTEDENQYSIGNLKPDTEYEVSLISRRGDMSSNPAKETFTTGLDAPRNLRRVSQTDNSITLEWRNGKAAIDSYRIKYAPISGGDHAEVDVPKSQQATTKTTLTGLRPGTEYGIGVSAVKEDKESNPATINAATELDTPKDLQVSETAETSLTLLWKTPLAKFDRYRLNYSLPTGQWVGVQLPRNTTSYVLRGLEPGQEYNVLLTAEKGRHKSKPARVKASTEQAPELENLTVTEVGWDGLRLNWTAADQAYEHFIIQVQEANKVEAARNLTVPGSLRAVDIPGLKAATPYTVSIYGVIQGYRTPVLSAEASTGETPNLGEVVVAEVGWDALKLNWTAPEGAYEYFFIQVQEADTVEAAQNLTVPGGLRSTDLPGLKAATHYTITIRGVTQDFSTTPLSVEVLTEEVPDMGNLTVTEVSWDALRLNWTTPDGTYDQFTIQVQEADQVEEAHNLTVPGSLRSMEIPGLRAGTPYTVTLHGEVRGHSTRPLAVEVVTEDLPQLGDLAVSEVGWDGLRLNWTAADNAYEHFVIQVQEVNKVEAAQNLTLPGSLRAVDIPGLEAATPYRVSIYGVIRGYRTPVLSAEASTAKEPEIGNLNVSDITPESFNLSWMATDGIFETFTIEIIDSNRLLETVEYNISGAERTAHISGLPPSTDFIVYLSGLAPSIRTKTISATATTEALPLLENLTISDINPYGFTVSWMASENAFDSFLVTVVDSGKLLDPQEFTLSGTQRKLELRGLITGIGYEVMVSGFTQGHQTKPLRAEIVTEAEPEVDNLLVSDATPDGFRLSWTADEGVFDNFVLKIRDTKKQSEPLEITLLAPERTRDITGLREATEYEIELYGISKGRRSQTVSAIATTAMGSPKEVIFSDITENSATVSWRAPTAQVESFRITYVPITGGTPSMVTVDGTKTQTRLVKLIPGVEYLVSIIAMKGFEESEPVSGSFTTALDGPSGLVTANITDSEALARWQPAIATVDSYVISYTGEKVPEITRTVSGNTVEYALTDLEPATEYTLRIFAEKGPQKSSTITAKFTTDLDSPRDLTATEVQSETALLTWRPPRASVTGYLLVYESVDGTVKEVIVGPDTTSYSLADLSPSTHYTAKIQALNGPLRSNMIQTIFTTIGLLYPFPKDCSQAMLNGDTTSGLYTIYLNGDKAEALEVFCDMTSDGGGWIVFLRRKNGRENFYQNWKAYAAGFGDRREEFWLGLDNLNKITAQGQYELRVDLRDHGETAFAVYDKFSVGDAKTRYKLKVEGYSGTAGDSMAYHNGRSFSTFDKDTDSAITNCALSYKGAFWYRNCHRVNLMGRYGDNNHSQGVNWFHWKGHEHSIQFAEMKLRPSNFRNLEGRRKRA
UniProt P02675: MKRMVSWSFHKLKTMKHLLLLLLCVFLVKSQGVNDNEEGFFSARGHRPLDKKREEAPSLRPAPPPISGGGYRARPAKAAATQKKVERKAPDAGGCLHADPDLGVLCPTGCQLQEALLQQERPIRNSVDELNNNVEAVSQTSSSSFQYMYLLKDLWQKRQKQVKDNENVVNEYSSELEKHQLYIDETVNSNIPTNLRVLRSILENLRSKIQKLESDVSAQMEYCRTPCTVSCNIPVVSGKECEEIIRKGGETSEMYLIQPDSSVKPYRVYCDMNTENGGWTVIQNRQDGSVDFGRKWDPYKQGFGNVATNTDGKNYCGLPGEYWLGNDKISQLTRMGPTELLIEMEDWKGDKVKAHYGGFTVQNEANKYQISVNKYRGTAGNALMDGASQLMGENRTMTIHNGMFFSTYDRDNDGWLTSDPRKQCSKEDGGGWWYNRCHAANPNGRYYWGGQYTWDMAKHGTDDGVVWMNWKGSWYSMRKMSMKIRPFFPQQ
UniProt P02679: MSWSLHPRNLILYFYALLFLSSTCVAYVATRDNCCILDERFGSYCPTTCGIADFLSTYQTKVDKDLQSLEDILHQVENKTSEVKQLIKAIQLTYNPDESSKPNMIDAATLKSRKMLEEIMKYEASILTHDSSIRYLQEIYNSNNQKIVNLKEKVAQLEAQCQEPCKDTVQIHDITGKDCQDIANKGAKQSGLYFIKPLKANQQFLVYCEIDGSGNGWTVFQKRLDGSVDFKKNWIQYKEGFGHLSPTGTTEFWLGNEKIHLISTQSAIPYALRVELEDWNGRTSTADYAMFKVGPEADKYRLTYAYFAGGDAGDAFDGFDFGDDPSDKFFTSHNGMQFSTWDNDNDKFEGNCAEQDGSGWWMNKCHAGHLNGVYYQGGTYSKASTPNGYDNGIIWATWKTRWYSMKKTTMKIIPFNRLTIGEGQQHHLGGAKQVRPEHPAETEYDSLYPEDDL
human plasma fibronectin (P02751, form named): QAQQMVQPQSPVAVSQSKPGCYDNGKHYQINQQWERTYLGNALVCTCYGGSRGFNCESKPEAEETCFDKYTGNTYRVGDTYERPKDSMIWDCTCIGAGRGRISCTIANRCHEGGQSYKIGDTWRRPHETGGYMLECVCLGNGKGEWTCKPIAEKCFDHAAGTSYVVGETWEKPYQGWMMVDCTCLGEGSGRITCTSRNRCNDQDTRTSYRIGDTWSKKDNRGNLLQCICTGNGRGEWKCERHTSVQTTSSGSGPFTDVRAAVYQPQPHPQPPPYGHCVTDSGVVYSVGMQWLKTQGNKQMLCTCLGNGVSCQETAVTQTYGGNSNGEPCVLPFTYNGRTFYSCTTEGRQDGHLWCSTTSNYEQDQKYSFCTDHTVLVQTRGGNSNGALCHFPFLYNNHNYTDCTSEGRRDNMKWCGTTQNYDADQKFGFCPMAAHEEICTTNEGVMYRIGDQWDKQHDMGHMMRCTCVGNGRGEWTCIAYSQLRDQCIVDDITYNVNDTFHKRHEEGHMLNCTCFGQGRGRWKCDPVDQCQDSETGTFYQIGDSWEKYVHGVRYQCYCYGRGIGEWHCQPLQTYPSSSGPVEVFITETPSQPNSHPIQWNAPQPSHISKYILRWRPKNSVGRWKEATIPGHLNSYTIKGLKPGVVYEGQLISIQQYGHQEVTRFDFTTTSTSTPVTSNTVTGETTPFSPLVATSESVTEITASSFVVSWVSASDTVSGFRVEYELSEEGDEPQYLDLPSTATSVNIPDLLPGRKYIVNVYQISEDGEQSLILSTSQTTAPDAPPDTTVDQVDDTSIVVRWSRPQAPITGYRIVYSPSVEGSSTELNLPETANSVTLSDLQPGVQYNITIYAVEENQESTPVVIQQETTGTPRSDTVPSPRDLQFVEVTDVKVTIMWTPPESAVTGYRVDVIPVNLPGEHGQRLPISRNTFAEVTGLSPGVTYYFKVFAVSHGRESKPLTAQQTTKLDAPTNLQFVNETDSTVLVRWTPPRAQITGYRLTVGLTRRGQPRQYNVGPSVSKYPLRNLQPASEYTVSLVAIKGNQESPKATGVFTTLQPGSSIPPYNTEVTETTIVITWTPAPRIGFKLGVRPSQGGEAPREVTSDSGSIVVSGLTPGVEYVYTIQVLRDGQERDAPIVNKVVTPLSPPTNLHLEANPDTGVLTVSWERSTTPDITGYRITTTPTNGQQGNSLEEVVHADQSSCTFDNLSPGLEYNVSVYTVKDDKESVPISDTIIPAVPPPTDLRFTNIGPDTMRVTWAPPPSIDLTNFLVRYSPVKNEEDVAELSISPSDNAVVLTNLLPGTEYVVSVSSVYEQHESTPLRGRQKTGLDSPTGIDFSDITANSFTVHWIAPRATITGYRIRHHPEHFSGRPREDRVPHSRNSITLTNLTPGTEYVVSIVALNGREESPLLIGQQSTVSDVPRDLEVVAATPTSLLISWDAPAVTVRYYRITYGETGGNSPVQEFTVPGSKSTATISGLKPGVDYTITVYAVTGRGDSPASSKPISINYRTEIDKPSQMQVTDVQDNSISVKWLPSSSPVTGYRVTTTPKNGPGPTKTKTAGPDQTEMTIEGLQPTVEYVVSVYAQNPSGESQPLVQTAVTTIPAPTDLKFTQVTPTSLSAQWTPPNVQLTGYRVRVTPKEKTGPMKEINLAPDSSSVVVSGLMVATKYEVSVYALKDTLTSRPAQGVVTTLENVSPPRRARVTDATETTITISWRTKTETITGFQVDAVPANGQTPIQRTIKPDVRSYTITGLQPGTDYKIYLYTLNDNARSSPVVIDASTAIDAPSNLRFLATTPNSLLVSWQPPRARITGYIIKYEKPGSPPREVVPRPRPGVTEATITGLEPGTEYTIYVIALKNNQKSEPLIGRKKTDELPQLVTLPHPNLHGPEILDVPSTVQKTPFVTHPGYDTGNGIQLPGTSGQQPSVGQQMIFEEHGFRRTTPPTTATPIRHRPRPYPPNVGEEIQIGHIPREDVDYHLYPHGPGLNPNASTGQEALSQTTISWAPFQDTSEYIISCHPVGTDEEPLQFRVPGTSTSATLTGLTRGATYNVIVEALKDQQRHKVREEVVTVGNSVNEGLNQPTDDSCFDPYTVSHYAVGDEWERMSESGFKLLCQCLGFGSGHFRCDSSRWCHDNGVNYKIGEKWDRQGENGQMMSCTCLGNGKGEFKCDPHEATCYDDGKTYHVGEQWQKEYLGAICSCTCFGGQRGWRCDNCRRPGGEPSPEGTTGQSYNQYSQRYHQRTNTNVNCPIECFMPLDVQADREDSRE
UniProt P04004, residues 20-478: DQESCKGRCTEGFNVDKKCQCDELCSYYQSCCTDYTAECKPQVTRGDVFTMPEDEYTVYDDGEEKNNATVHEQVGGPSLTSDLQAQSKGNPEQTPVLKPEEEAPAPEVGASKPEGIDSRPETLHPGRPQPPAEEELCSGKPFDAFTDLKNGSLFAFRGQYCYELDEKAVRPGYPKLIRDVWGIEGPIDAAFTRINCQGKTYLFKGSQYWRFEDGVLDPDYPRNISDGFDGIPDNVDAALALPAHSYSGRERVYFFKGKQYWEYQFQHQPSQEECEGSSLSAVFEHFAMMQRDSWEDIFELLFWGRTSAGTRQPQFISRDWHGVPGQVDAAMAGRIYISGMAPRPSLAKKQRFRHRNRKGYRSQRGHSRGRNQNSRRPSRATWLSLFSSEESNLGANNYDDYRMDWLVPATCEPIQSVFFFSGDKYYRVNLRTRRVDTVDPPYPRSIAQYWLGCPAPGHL

RRRPKGRGKRRREKQRPTD (peptide, not shown: a dimerising Fc or GST; small tags and cut ends) [GST-fused PIGF123-141 fragment] was tested, and the binding (human tenascin C (human) [1]) was “binds”, the binding (human tenascin C (human) [2]) was “binds” and the binding (human tenascin C (human) [3]) was “binds”. The binding (human tenascin C (human) [4]) was “binds”.

B1: IL-1Ra/PIGF123-141 (protein)
chain: MNHKVHHHHHHMRPSGKRPCKMQAFRIWDTNQKTFYLRNNQLIAGYLQGPNIKLEEKIDMVPIDLHSVFLGIHGGKLCLSCAKSGDDIKLQLEEVNITDLSKNKEEDKRFTFIRSEKGPTTSFESAACPGWFLCTTLEADRPVSLTNTPEEPLIVTKFYFQEDQRRRPKGRGKRRREKQRPTD
B1 was tested, and the binding (human tenascin C (human) [5]) was “binds”.

B2: Placenta growth factor-2 (PIGF-2) (ligand)
chain: LPAVPPQQWALSAGNGSSEVEVVPFQEVWGRSYCRALERLVDVVSEYPSEVEHMFSPSCVSLLRCTGCCGDENLHCVPVETANVTMQLLKIRSGDRPSYVELTFSQHVRCECRPLREKMKPERRRPKGRGKRRREKQRPTDCHLCGDAVPRR
In the case of B2, the binding (human fibrinogen (human)) is reported as “binds”, the binding [6] is reported as “binds” and the binding (human tenascin C (human) [7]) is reported as “binds”. For the same binder, the binding [8] was “binds”.

In the case of RRLRQRRRLRRE (peptide, not shown: a dimerising Fc or GST; small tags and cut ends) [NRTN146-157 fragment (GST-fused construct from pGEX6P-1)], the binding (human tenascin C (human) [1]) is reported as “binds”.

RKKKGGKNGKNRR (peptide, not shown: a dimerising Fc or GST; small tags and cut ends) [AREG126-138 fragment (GST-fused construct from pGEX6P-1)] was tested, and the binding (human tenascin C (human) [1]) was “binds”.
